Measured values reported in patent US20080014272A1, “Compositions and Methods for Treatment of Chronic Pain Conditions” (priority 2006, published 2008).

Assay: Monoiodoacetamide (MIA)-induced osteoarthritis in rats, hind paw weight distribution
Assay type: in vivo, Male Wistar rats
Settings: oral gavage (PO), Day 14 post MIA injection, 1 and 2 hours post-administration; bicifadine 5, 10, 20, 40 or 60 mg/kg, morphine 60 mg/kg; FIG. 1
Protocol: Animals were fed standard rat chow with water available ad libitum.
The rats were anesthetized with 5% volume/volume (“v/v”) isoflurane gas and maintained with 2% v/v isoflurane gas. […] MIA was dissolved in physiologic saline and administered in a volume of 50 μL. The contralateral control knee was injected with 50 μL of physiologic saline. Administration of isoflurane gas was discontinued, and the rats became fully conscious about 5 minutes later.
Shifts in hind paw weight distribution from the right to the left hind paws supporting the right (arthritic) and the left (contralateral control) hind leg knee joints were utilized as an index of joint pain and as a measure of compound efficacy. An incapacitance tester (Model 2KG, Linton Instrumentation, UK) was employed for determination of hind paw weight distribution.
The acute dosing paradigm used herein relates to osteoarthritis signs such as mobility and joint function and osteoarthritis symptoms such as joint pain.

CN1CC[C@]23c4c5ccc(O)c4O[C@H]2[C@@H](O)C=C[C@H]3[C@H]1C5 [morphine, reference compound]
Effect on osteoarthritis-related pain (change in hind paw weight distribution): significantly reduced the pain
